Results deposited as PubChem BioAssay AID504791 (Drosophila RNAi Screening Center, 2011).

Test: 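Genes whose knock-down strengthens or weakens small-RNA reporter silencing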 (primary screen)
Cell system: Drosophila S2-derived reporter cells
Reagents: long dsRNA against Drosophila genes, about 150-250 ng dsRNA per well (siRNA assay); about 80-120 ng (miRNA assay)
Time to read-out: about 5 days (siRNA assay); about 4 days (miRNA assay)
Challenge: copper sulfate induction of reporters: 25 µM (siRNA assay); 200 mM stated (miRNA assay), 1-2 days before reading
Measured: 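Dual luciferase assay: Renilla to firefly signal ratio in each well, scaled to the mean ratio of its plate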
Active means: 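a well was a first-pass pick when its plate-scaled ratio rose above 1.5 (siRNA assay) or 1.6 (miRNA assay), or dropped below 0.6; a gene counted only if two separate dsRNAs agreed on retest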
In all, the deposit lists about 23,000 reagents; below is a random part of those with a known target gene and a result. In the full data, 199 (0.86%) are marked active. 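Plate-scaled ratios behind the calls are not deposited; printed light signals are raw; many rows marked increased or decreased are still called inactive.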 Names joined by + are all predicted targets of the reagent. Not stated in the record: the direction of the score.

| target gene | amplicon | stable siRNA reporter change | stable assay Renilla, run 1 (luminescence) | stable assay firefly, run 1 (luminescence) | outcome |
| --- | --- | --- | --- | --- | --- |
| CG13117 (GeneID 34289) | DRSC02215 | – | 7314 | 4.39e5 | inactive |
| CG15483 (GeneID 34687) | DRSC02493 | – | 7670 | 4.08e5 | inactive |
| CG6345 (GeneID 41271) | DRSC16024 | – | 6542 | 4.35e5 | inactive |
| SpdS (GeneID 41167) | DRSC16408 | – | 6103 | 3.38e5 | inactive |
| mldr (GeneID 31568) | DRSC18100 | – | 5000 | 3.48e5 | inactive |
| RunxA (GeneID 4379817) | DRSC20400 | – | 3731 | 3.20e5 | inactive |
| RunxA (GeneID 4379817) | DRSC20498 | – | 5371 | 3.03e5 | inactive |
| RunxA (GeneID 4379817) | DRSC20524 | – | 3932 | 3.95e5 | inactive |
| RunxA (GeneID 4379817) | DRSC21915 | – | 9542 | 4.84e5 | inactive |
| CG31782 (retired record) (GeneID 318938) | DRSC01554 | – | 6711 | 5.55e5 | inactive |
| CG31782 (retired record) (GeneID 318938) | DRSC01556 | – | 4660 | 4.37e5 | inactive |
| udt (GeneID 42809) | DRSC14214 | – | 7342 | 4.12e5 | inactive |
| CG14126 (retired record) (GeneID 39350) | DRSC10130 | – | 5751 | 3.42e5 | inactive |
| Rab3GAP1 (GeneID 33338) | DRSC00291 | – | 7538 | 4.85e5 | inactive |
| Rab3GAP1 (GeneID 33338) | DRSC00703 | – | 7431 | 4.09e5 | inactive |
| CG31274 + MESK4 | DRSC13202 | – | 4091 | 3.33e5 | inactive |
| Marc (GeneID 36014) | DRSC06614 | – | 6266 | 4.03e5 | inactive |
| CG11334 (GeneID 43713) | DRSC14066 | – | 6526 | 3.21e5 | inactive |
| CG11334 (GeneID 43713) | DRSC14302 | – | 5739 | 4.46e5 | inactive |
| CG2691 (GeneID 32320) | DRSC19866 | – | 8620 | 5.31e5 | inactive |
| Ccp84Ae (GeneID 40821) | DRSC12590 | – | 4987 | 4.76e5 | inactive |
| CG6280 (GeneID 36522) | DRSC06972 | – | 6298 | 3.39e5 | inactive |
| kat-60L1 (GeneID 40715) | DRSC12184 | – | 7384 | 4.40e5 | inactive |
| CG4691 (GeneID 34856) | DRSC01950 | – | 24676 | 1.38e6 | inactive |
| fd3F (retired record) + Crg-1 | DRSC17283 | – | 8159 | 4.78e5 | inactive |
| CG15279 (GeneID 34863) | DRSC01935 | – | 57920 | 1.29e6 | inactive |
| MsR1 (GeneID 38298) | DRSC08615 | – | 5383 | 3.76e5 | inactive |
| CG3502 + CG9863 | DRSC04578 | – | 6664 | 3.60e5 | inactive |
| yellow-g (GeneID 38294) | DRSC08575 | – | 6526 | 3.46e5 | inactive |
| CG42713 (GeneID 10178890) | DRSC01050 | – | 6322 | 4.98e5 | inactive |
| nebu (GeneID 39458) | DRSC09807 | – | 9286 | 3.43e5 | inactive |
| nebu (GeneID 39458) | DRSC09808 | – | 6127 | 4.36e5 | inactive |
| mas (GeneID 38499) | DRSC08720 | – | 7689 | 4.57e5 | inactive |
| CG15124 (GeneID 37256) | DRSC06546 | – | 7368 | 3.92e5 | inactive |
| Lkb1 (GeneID 41673) | DRSC16481 | – | 9093 | 4.81e5 | inactive |
| CG11178 (GeneID 32315) | DRSC19396 | – | 8202 | 5.29e5 | inactive |
| CG5909 (GeneID 43274) | DRSC15914 | – | 6671 | 3.39e5 | inactive |
| CG8065 (GeneID 39186) | DRSC10959 | – | 6070 | 3.43e5 | inactive |
| otk (GeneID 36283) | DRSC07658 | – | 5287 | 2.96e5 | inactive |
| Helz (GeneID 39613) | DRSC11072 | – | 9355 | 2.94e5 | inactive |
| snama (GeneID 37857) | DRSC04049 | – | 13506 | 1.56e6 | inactive |
| Tektin-A (GeneID 34934) | DRSC01921 | – | 22511 | 1.24e6 | inactive |
| CG34315 + Orc3 | DRSC07642 | – | 8115 | 5.03e5 | inactive |
| RpL34a (GeneID 43169) | DRSC15964 | – | 7087 | 3.20e5 | inactive |
| CG14488 (GeneID 37030) | DRSC06460 | – | 7827 | 4.50e5 | inactive |
| PNPase (GeneID 43710) | DRSC14304 | – | 7720 | 6.14e5 | inactive |
| CG6688 (GeneID 42716) | DRSC16094 | – | 7369 | 4.18e5 | inactive |
| CG30345 (GeneID 246553) | DRSC05144 | – | 4755 | 3.89e5 | inactive |
| fd96Cb (GeneID 43011) | DRSC16947 | – | 7282 | 3.55e5 | inactive |
| DCTN2-p50 (GeneID 44086) | DRSC07132 | – | 8486 | 4.18e5 | inactive |
| Clic (GeneID 32349) | DRSC19364 | – | 6079 | 4.64e5 | inactive |
| Shawn + Tyler | DRSC19564 | – | 7887 | 5.81e5 | inactive |
| Shawn + Tyler | DRSC19565 | – | 5871 | 4.54e5 | inactive |
| PGRP-LD + Pmi | DRSC10512 | – | 8215 | 6.01e5 | inactive |
| PGRP-LD + Pmi | DRSC10513 | – | 4164 | 4.00e5 | inactive |
| Aldh-III (GeneID 45398) | DRSC06047 | – | 14933 | 1.97e6 | inactive |
| Nrd1 (GeneID 32143) | DRSC19830 | – | 8036 | 3.80e5 | inactive |
| thoc7 (GeneID 38033) | DRSC08512 | – | 9791 | 3.13e5 | inactive |
| CG12003 (GeneID 38183) | DRSC08214 | – | 6220 | 4.36e5 | inactive |
| CG13698 (GeneID 40000) | DRSC10047 | – | 9928 | 4.24e5 | inactive |
| CG30389 (GeneID 37410) | DRSC04077 | – | 1.09e5 | 3.26e5 | inactive |
| CG30389 (GeneID 37410) | DRSC04452 | – | 6975 | 4.64e5 | inactive |
| CG14105 (GeneID 39507) | DRSC10107 | – | 6282 | 3.54e5 | inactive |
| CG13318 (GeneID 41048) | DRSC14581 | – | 6974 | 4.31e5 | inactive |
| halo (GeneID 33334) | DRSC00705 | – | 6518 | 3.59e5 | inactive |
| mRF1 (GeneID 34720) | DRSC02880 | – | 13680 | 8.89e5 | inactive |
| Osi7 (GeneID 40761) | DRSC12176 | – | 6726 | 3.64e5 | inactive |
| Pcp (GeneID 33985) | DRSC03395 | – | 6898 | 4.12e5 | inactive |
| orion (GeneID 31712) | DRSC18213 | – | 5279 | 3.02e5 | inactive |
| orion (GeneID 31712) | DRSC18214 | – | 5495 | 3.02e5 | inactive |
| CG9590 (GeneID 41907) | DRSC16506 | – | 10903 | 4.89e5 | inactive |
| CG34384 (GeneID 5740362) | DRSC12644 | – | 6206 | 4.06e5 | inactive |
| CG34384 (GeneID 5740362) | DRSC14855 | – | 6976 | 5.51e5 | inactive |
| CG34384 (GeneID 5740362) | DRSC15444 | – | 7080 | 4.90e5 | inactive |
| CG34384 (GeneID 5740362) | DRSC16575 | – | 7726 | 5.34e5 | inactive |
| Raf (GeneID 31221) | DRSC18821 | – | 4952 | 2.64e5 | inactive |
| Raf (GeneID 31221) | DRSC23311 | – | 4500 | 2.51e5 | inactive |
| CG14598 (GeneID 40893) | DRSC12541 | – | 6727 | 4.24e5 | inactive |
| Cdc6 (GeneID 38989) | DRSC10563 | – | 7151 | 4.58e5 | inactive |
| CG14395 (GeneID 41560) | DRSC14852 | – | 6910 | 4.09e5 | inactive |
| Sumo (GeneID 33981) | DRSC03611 | reporter ratio lowered past the hit cutoff | 49555 | 9.31e5 | active |
| stil (GeneID 36380) | DRSC07699 | – | 8087 | 5.02e5 | inactive |
| Rpt6R (GeneID 43635) | DRSC15431 | – | 6056 | 4.19e5 | inactive |
